From patent EP4799647A1 (Shanghai Qilu Pharmaceutical Research and Development …, priority 2023, dated 2025) come the findings set out here.

The series is described as follows: general procedure: solution-phase peptide synthesis; HATU/DIPEA; DMTMM. The following applies: for conjugation yield: conjugation step.

Under “late stage modification step”, “2-amino-N-[(9S)-9-benzyl-1-[(4S)-4-ethyl-8,9-difluoro-4-hydroxy-3,14-dioxo-1,3,4,12-tetrahy dropyrano[3',4':6,7]indolizino[1,2-b]quinolin-11-yl]-5,8,11-trioxo-2-oxa-4,7,10-triazadodeca n-12-yl]acetamide (C1-9)” came in with a step yield of 89.1%. Take “2-methylpropan-2-yl {[(7S)-7-benzyl-11-{[(1S,9S)-9-ethyl-5-fluoro-9-hydroxy-4-methyl-10,13-dioxo-2,3,9,10,12,15 -hexahydro-1H-cyclohexo[1,2,3-de]pyrano[3',4':6,7]indolizino[1,2-b]quinolin-1-yl]amino}-2, 5,8,11-tetraoxo-3,6,9-triazaaundecan-1-yl]amino}formate”: the conjugation yield was 61.2%. As for “9H-fluoren-9-ylmethyl {[(7S)-7-benzyl-11-{[4-(hydroxymethyl)phenyl]amino}-2,5,8,11-tetraoxo-3,6,9-triazoundecan -1-yl]amino}formate”, the step yield (late stage modification step) is listed as 82.8%. As to “9H-fluoren-9-ylmethyl {[(9S)-9-benzyl-1-[(4S)-4-ethyl-8,9-difluoro-4-hydroxy-3,14-dioxo-1,3,4,12-tetrahydropyran o[3',4':6,7]indolizino[1,2-b]quinolin-11-yl]-5,8,11,14-tetraoxo-2-oxa-4,7,10,13-tetraazapenta decan-15-yl]amino}formate (C1-8)”, under “coupling step”, the step yield is 78.2%. Same read-out and setting: to “9H-fluoren-9-ylmethyl {[(9S,18S)-9-benzyl-1-[(4S)-4-ethyl-8,9-difluoro-4-hydroxy-3,14-dioxo-1,3,4,12-tetrahydropy rano[3',4':6,7]indolizino[1,2-b]quinolin-11-yl]-5,8,11,14,17,24-hexaoxo-4,7,10,13,16,23-hexaa za-2,26,29,32,35,38,41,44,47-nonaoxaoctatetracontan-18-yl]amino}formate” belongs 44.7%. As for “(4-{[(22S)-1-amino-22-benzyl-14,17,20,23,26-pentaoxo-15,18,21,24-tetraaza-3,6,9,12-tetraox ahexacosan-26-yl]amino}phenyl)methyl”, the step yield (late stage modification step) is 100%. Still for that read-out and setting: for “N-[(1S,9S)-9-ethyl-5-fluoro-9-hydroxy-4-methyl-10,13-dioxo-2,3,9,10,12,15-hexahydro-1H-c yclohexo[1,2,3-de]pyrano[3',4':6,7]indolizino[1,2-b]quinolin-1-yl]-2-{[(2S)-8-amino-2-benzyl -1,4,7-trioxo-3,6-diazaoct-1-yl]amino}acetamide” the value was 100%. As for “N-[(7S)-7-benzyl-11-{[(1S,9S)-9-ethyl-5-fluoro-9-hydroxy-4-methyl-10,13-dioxo-2,3,9,10,12,1 5-hexahydro-1H-cyclohexo[1,2,3-de]pyrano[3',4':6,7]indolizino[1,2-b]quinolin-1-yl]amino}-2,5,8,11-tetraoxo-3,6,9-triazaaundecan-1-yl]”, the conjugation yield came to 34.2% (run 1); 30.0% (run 2); 27.6% (run 3); 33.9% (run 4); 28.2% (run 5). For the substance “N-[(9S)-9-benzyl-1-[(4S)-4-ethyl-8,9-difluoro-4-hydroxy-3,14-dioxo-1,3,4,12-tetrahydropyra no[3',4':6,7]indolizino[1,2-b]quinolin-11-yl]-5,8,11-trioxo-2-oxa-4,7,10-triazadodecan-12-yl]-2-{[(31S)-31-amino-25,32-dioxo-26-aza-2,5,8,11,14,17,20,23-octaoxadotriacontan-32-yl]amin o}ac”, the step yield (late stage modification step) was found to be 78.7%.
